Experiment [1] addresses human BMPR1A-HA on HEK293T cells (human) (UniProt P36894). Put plainly: cell surface binding assay.
Experiment [2] concerns the target human RSPO2^ΔFU2-flag (human) (UniProt Q6UXX9). Put plainly: in vitro binding assay.

Protein sequences, listed by entry. Tags and fused reporters are not part of them. Lines headed by an entry give the natural chain unless they say otherwise; changes in a name come on top.
UniProt Q6UXX9: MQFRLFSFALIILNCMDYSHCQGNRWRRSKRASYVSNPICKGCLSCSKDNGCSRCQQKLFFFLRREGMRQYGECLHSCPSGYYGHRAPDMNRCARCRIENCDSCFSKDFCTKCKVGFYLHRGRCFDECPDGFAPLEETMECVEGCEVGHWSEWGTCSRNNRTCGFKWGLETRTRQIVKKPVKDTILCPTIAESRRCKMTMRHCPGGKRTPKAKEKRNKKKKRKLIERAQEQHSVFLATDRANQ
UniProt Q9BXY4: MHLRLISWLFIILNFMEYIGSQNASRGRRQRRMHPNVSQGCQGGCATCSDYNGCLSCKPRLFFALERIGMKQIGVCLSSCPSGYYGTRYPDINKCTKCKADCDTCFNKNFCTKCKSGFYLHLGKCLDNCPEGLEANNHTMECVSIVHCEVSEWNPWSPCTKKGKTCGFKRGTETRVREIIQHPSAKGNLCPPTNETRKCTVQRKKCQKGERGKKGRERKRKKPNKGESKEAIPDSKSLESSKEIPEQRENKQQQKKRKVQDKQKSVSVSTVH

These are yes or no findings as the source states them, for the method shown. Binding can be weak; no strength is given.

Take “human RSPO2^ΔC-AP (from UniProt Q6UXX9) (ligand)”: in experiment [1], the binding result is “binds”.

As to “human RSPO3^ΔC-AP (from UniProt Q9BXY4) (ligand)”, in experiment [1], the binding result is recorded as “binds”.

B1: BMPR1A^ECD-AP (domain or fragment, UniProt P36894 24-152, looked up)
chain: QNLDSMLHGTGMKSDSDQKKSENGVTLAPEDTLPFLKCYCSGHCPDDAINNTCITNGHCFAIIEEDDQGETTLASGCMKYEGSDFQCKDSPKAQLRRTIECCRTNLCNQYLQPTLPPVVIGPFFDGSIR
Turning to B1, the binding entry in experiment [2] was “binds”.

The values are drawn from publication doi:10.1101/2020.09.10.287607 (bioRxiv, 2020).
